Assay results as given in PubChem BioAssay AID504444 (National Center for Advancing Translational Sciences (NCATS), 2011).
“And” between values parts separate entries of the source, which are not always exact repeats. Identical values can stand only once. The campaign covered roughly 360,000 compounds. About 7,500 (2.1%) were called active. Inconclusive means that the source gave no clear call. Such entries were picked first, then a sample of the others. Calls follow the shape of the dose curve; as a rule, active = well fitted inhibition curve with a large enough effect; inconclusive = small, poorly fitted or top-dose-only effect, or effect the other way; inactive = flat fitted curve, though single readings scatter. Where the call is inconclusive, the potency comes from a doubtful curve fit.

assay: Nrf2 qHTS screen for inhibitors; conditions: A549 ARE-Fluc reporter, luciferase luminescence, 18-24 h; activity change, negative = inhibition: at 46 µM (top of the series); also: nearly all actives have a fitted effect of over 60% in size
Method in brief: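 Nrf2 function is reported as luminescence of an ARE-controlled luciferase in A549 cells. Compounds were tested at several concentrations, and a CellTiter-Fluor read on the same wells flagged cytotoxicity.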
% is scaled to controls: 0 for no effect and ±100 for the full control effect; potency is read from the fitted curve at half-maximal effect.

For `COc1cc(NC(=O)Cc2noc3ccccc23)cc(OC)c1OC`, which “activity change, negative = inhibition” value is on record?
Its value is inactive: -5.79%.

With `COc1ccc(C(=O)NC(=S)N2CCCCC2c2cccnc2)cc1OC` (configuration not stated) as the compound, how does the Potency read?
Its Potency is inconclusive: 8.2 µM [falling, partial curve].

With `CCSc1nc(-c2ccccc2)cc(=O)[nH]1` as the compound, how does the Potency read?
The Potency was inconclusive: 16.4 µM [activator, partial curve, poor fit].

With `CC(NCC(O)COCCC12CC3CC(CC(C3)C1)C2)c1ccccc1` (configuration not stated) as the compound, how does the Potency read?
The Potency was inconclusive: 29.1 µM [falling, single point].

With `O=C(NNS(=O)(=O)c1ccc(F)cc1F)C1Cc2c(ccc3ccccc23)O1` (configuration not stated) as the compound, how does the Potency read?
The Potency was inconclusive: 9.2 µM [falling, partial curve, poor fit].

With `CCOC(=O)c1cccc(NC(=O)Nc2c(C)n(C)n(-c3ccccc3)c2=O)c1` as the compound, how does the “activity change, negative = inhibition” value read?
The value was inactive: 2.33%.

With `CN1/C(=C/C(=O)c2ccc(Cl)cc2)Sc2cc3c(cc21)OCO3` as the compound, how does the Potency read?
The Potency was inconclusive: 5.8 µM [activator, partial curve, poor fit].

With `O=C(NC(=S)N1CCCCCC1)c1ccccc1Cl` as the compound, how does the Potency read?
The Potency was inconclusive: 14.6 µM [falling, partial curve, poor fit].

With `COc1ccc(CNC(=O)Cn2cccc2C(=O)c2ccccc2C)cc1` as the compound, how does the Potency read?
The Potency was “inactive and inconclusive: 9.2 µM [activator, partial curve]”.

Which Potency does the source give for `Cc1cccc(C)c1-n1c(C)cc(/C=C2\C(=O)NN(c3ccccc3)C2=O)c1C` here?
Its Potency is inconclusive: 25.9 µM [falling, partial curve, poor fit].

For `Cc1nnc2c(N(C)S(=O)(=O)c3ccccc3)nc3ccccc3n12`, which Potency is on record?
Its Potency is inconclusive: 3.66 µM [activator, full curve, poor fit].

Which Potency does the source give for `COc1ccc(C)cc1S(=O)(=O)N1CCCC(C(=O)N2CCN(c3ccccc3)CC2)C1` (configuration not stated) here?
Its Potency is active: 25.9 µM.

Which Potency does the source give for `CC1=C(C(=O)N2CCOCC2)C(c2ccccc2F)C2=C(CCCC2=O)N1` (configuration not stated) here?
The Potency was inconclusive: 6.51 µM [activator, partial curve, poor fit].

With `COc1ccccc1CNC(=O)COC(=O)c1cc(C)oc1C` as the compound, how does the Potency read?
The Potency was inconclusive: 7.31 µM [falling, partial curve].

For `CC(=O)N1CCCc2cc(S(=O)(=O)N3CCN(C4CCCCC4)CC3)ccc21`, which Potency is on record?
The Potency was inconclusive: 32.6 µM [falling, partial curve, poor fit].

Which Potency does the source give for `COc1ccc(/C=c2\s/c(=C\C(=O)C(C)(C)C)[nH]c2=O)cc1O` here?
The Potency was inconclusive: 32.6 µM [falling, single point].

Which Potency does the source give for `c1cncc(-c2noc(-c3cccc4ccccc34)n2)c1` here?
The Potency was inconclusive: 5.17 µM [activator, partial curve].

Which “activity change, negative = inhibition” value does the source give for `Cc1cccc(C)c1N(CC(=O)NCc1ccccc1)C(=O)c1csnn1` here?
The value was inactive: 6.65%.

Which Potency does the source give for `CCNc1c(NS(=O)(=O)c2ccc(Cl)s2)c(=O)oc2ccccc12` here?
The Potency was inconclusive: 10.3 µM [falling, partial curve, poor fit].

For `O=C(CCCC(=O)N(c1ccc2c(c1)OCCO2)C(C(=O)NC1CCCCC1)c1ccc(Cl)cc1)Nc1ccccn1` (configuration not stated), which Potency is on record?
Its Potency is inconclusive: 18.4 µM [falling, partial curve, poor fit].

For `CSc1ncc(C(=O)NCc2cccc(C)c2)c(-c2ccccc2)n1`, which “activity change, negative = inhibition” value is on record?
The value was inactive: 17.7%.

For `COc1ccccc1/C=C/C(=O)Nc1nc2n(n1)C(c1ccc(F)cc1)C=C(c1ccccc1)N2` (configuration not stated), which Potency is on record?
The Potency was inconclusive: 5.8 µM [activator, partial curve].

For `Cc1ccc(OCCn2c(C3CC(=O)N(Cc4ccc(F)cc4)C3)nc3ccccc32)c(C)c1` (configuration not stated), which Potency is on record?
Its Potency is active: 23.1 µM.

Which Potency does the source give for `O=C1N[C@@H](Cc2c[nH]c3ccccc23)COC(=O)[C@H](Cc2ccc(F)cc2)C/C=C\C[C@H]1CC(=O)N(CCO)Cc1ccccc1` here?
Its Potency is active: 25.9 µM.

Which Potency does the source give for `COc1cccc(OCC(O)CN2C(C)CCCC2C)c1` (configuration not stated) here?
Its Potency is inconclusive: 11.6 µM [activator, partial curve, poor fit].

Which Potency does the source give for `OCCCNC(=S)Nc1ccc(Nc2ccccc2)cc1` here?
The Potency was inconclusive: 5.8 µM [falling, full curve].

For `CCOC(=O)c1cnc(-n2nc(C)cc2C)nc1Nc1ccc(OC)cc1`, which Potency is on record?
The Potency was inconclusive: 9.2 µM [falling, partial curve, poor fit].

With `C=CCc1ccccc1OCCSc1nc(-c2ccccc2F)nc2cc(=O)[nH]n12` as the compound, how does the Potency read?
Its Potency is inconclusive: 9.2 µM [activator, partial curve, poor fit].

With `O=C1CCCC2=C1C(c1cccc(O)c1)C1=C(N2)c2ccccc2C1=O` (configuration not stated) as the compound, how does the “activity change, negative = inhibition” value read?
Its value is inactive: -3.62%.

Which “activity change, negative = inhibition” value does the source give for `Cc1ccc(-c2nc(N)s[n+]2-c2ccccc2)cc1` here?
The value was inactive: 13.6%.

For `O=S(=O)(NCC(c1ccccc1)N1CCc2ccccc21)c1ccc(Cl)cc1` (configuration not stated), which Potency is on record?
The Potency was inconclusive: 18.4 µM [falling, single point].

For `Cc1nc(C(C)Nc2ncnc3ccc(-c4ccc5c(c4)OCO5)cc23)cs1` (configuration not stated), which “activity change, negative = inhibition” value is on record?
Its value is inactive: -11.7%.

With `Clc1ccc(-c2nnc(SCc3ccon3)o2)c(Cl)c1` as the compound, how does the Potency read?
Its Potency is inconclusive: 0.58 µM [activator, partial curve, poor fit].

With `Cc1ccc(-n2nnnc2SCC(=O)NCCc2ccccc2)cc1C` as the compound, how does the Potency read?
Its Potency is inconclusive: 29.1 µM [falling, single point].

Which Potency does the source give for `Cc1cc(OCc2cc(C(=O)NC3CCC3)no2)cc(C)c1Cl` here?
The Potency was inconclusive: 1.84 µM [falling, partial curve].

With `O=C1/C(=C/c2ccc(F)cc2)SC(=S)N1Nc1ncc(C(F)(F)F)cc1Cl` as the compound, how does the Potency read?
The Potency was inconclusive: 16.4 µM [falling, partial curve, poor fit].

For `COc1ccc(NC2CCCN(C(=O)COc3ccc(Cl)cc3C)C2)cc1OC` (configuration not stated), which Potency is on record?
The Potency was inconclusive: 2.06 µM [falling, partial curve, poor fit].

With `CN1C(=O)/C(=C/c2ccc(O)c([N+](=O)[O-])c2)N(C)C1=S` as the compound, how does the Potency read?
The Potency was inconclusive: 23.1 µM [activator, partial curve, poor fit].

Which Potency does the source give for `CCc1ccc(NC(=O)c2cnn3ccccc23)cc1` here?
Its Potency is inconclusive: 16.4 µM [falling, single point].

For `Cc1cc(C)c(NC(=O)c2cccs2)c(C)c1NC(=O)c1cccs1`, which Potency is on record?
Its Potency is inconclusive: 29.1 µM [activator, single point].

Which Potency does the source give for `COC(=O)C(CCSC)NC(=O)CNS(=O)(=O)c1ccc(F)cc1` (configuration not stated) here?
Its Potency is inconclusive: 29.1 µM [activator, single point].

With `CCOC(=O)c1ccccc1NC(=O)c1c(N)n(C)c(=O)[nH]c1=O` as the compound, how does the Potency read?
Its Potency is inconclusive: 23.1 µM [falling, single point].

For `CC1(C)CC(=O)c2c(nc(SCC(=O)Nc3nsc(-c4ccccc4)n3)c(C#N)c2-c2ccccc2)C1`, which Potency is on record?
The Potency was inconclusive: 23.1 µM [falling, partial curve].

For `O=[N+]([O-])c1ccc(/C=N/Nc2nc(N3CCCCC3)nc(N3CCCCC3)n2)o1`, which Potency is on record?
Its Potency is active: 18.4 µM.

Which Potency does the source give for `CCC(=O)N1CCN(C(=O)c2ccccc2)CC1` here?
Its Potency is inconclusive: 32.6 µM [falling, single point].

For `CC(C)(C)OC(=O)NC(CCNC=C1C(=O)OC(C)(C)OC1=O)C(=O)O` (configuration not stated), which Potency is on record?
The Potency was inconclusive: 6.51 µM [falling, single point].

Which Potency does the source give for `O=C(Nc1nc2cc(Cl)ccc2s1)C1CCCN(S(=O)(=O)c2cccc3cccnc23)C1` (configuration not stated) here?
Its Potency is inconclusive: 29.1 µM [falling, single point].

Which Potency does the source give for `CCn1c(SCC(=O)Nc2ccccc2N2CCCCC2)nc2c1c(=O)n(C)c(=O)n2C` here?
The Potency was inconclusive: 29.1 µM [falling, single point].

With `COc1ccccc1C(c1nnnn1CC1CCCO1)N1CCC(C(N)=O)CC1` (configuration not stated) as the compound, how does the Potency read?
Its Potency is inconclusive: 7.31 µM [activator, partial curve].

Which Potency does the source give for `Cc1ccccc1C(=O)c1cccn1CC(=O)NCc1ccc(F)cc1` here?
Its Potency is inconclusive: 16.4 µM [activator, partial curve, poor fit].

For `CCCn1c(-c2cccnc2Cl)nc2cc(Cl)c(Cl)cc21`, which Potency is on record?
The Potency was inconclusive: 23.1 µM [falling, single point].

For `Cc1cc(NNC(=O)c2cccc(C(F)(F)F)c2)nc2c1c(C)nn2C`, which Potency is on record?
Its Potency is inconclusive: 8.2 µM [falling, partial curve, poor fit].

For `Cc1ccc(C(=O)N2CCN(c3ccc(NC(=O)c4cccnc4)cc3)CC2)cc1`, which Potency is on record?
Its Potency is inconclusive: 5.17 µM [falling, partial curve, poor fit].

Which Potency does the source give for `COc1cc(OC)cc(C(=O)NC(=S)N2CCCCCC2)c1` here?
The Potency was inconclusive: 18.4 µM [falling, partial curve, poor fit].

Which Potency does the source give for `COc1ccccc1C(=O)NNC(=O)c1cccc(F)c1` here?
The Potency was inconclusive: 0.517 µM [activator, full curve].

For `O=C1NC(c2ccccc2)N=C2Oc3ccccc3C=C12` (configuration not stated), which Potency is on record?
The Potency was inconclusive: 9.2 µM [activator, partial curve, poor fit].

With `O=C(O)CCN1Cc2ccccc2C1=O` as the compound, how does the Potency read?
Its Potency is inconclusive: 0.82 µM [falling, full curve, poor fit].

Which Potency does the source give for `FC(F)(F)c1ccccc1-n1c(-c2ccco2)n[nH]c1=S` here?
The Potency was inconclusive: 11.6 µM [activator, partial curve].

Which Potency does the source give for `CCCc1cnc(N2CCN(C(=S)NC)CC2)nc1` here?
The Potency was inconclusive: 4.61 µM [activator, full curve, poor fit].

With `CCOc1ccc(C(=O)NN2C(=O)C3C4C=CC(O4)C3C2=O)cc1` (configuration not stated) as the compound, how does the Potency read?
The Potency was inconclusive: 29.1 µM [activator, partial curve, poor fit].

With `CCOc1ccc(NS(=O)(=O)c2c(C)nc3sc(CC)nn3c2=O)cc1` as the compound, how does the Potency read?
Its Potency is inconclusive: 20.6 µM [falling, partial curve, poor fit].

Which Potency does the source give for `O=C(NCc1cccnc1)/C(=C/c1ccccc1)NC(=O)c1ccccc1` here?
Its Potency is inconclusive: 0.103 µM [falling, full curve, poor fit].
